Experimental data from patent publication US8183210B2 (Chiesi Farmaceutici S.p.A., priority 2006, dated 2012).
Plain letter strings leave the end groups untold.

Experiment: general procedure: Fmoc solid-phase peptide synthesis
Conditions: whole synthesis, acetate, several disulfide bridges, sequence written open

With CLLCRALIKRIQALIPKGGRLLPQLVCRLVLRCS the “final purity (method not given)” value was over 89% and the isolated yield was 1.7%.
